These are yes or no findings as the source states them, for the method shown. Binding seen in cells or lysates may run through a third protein. Some binding calls cover weakened binding; strength is not graded here. For some assays here: Sequences can lack the tags named with a protein.
What was measured:
SFB-DHX9^WT (human) [1] = molecular target: SFB-DHX9^WT (human) (UniProt Q08211); assay: pull-down; as a1, lysates (text: nuclear extracts) treated with RNase A (20 μg/mL) before SFB-tag pull-down
SFB-DHX9^K76R (human) = SFB-DHX9^K76R (human) (UniProt Q08211); assay: pull-down; SFB-DHX9 variants in lysates of transfected HeLa cells (NETN buffer: 20 mM Tris-HCl pH 8.0, 0.5 mM EDTA, 150 mM NaCl, 0.5% Igepal, 10% glycerol, 15 mM NEM) captured on Dynabeads M-280 streptavidin, 4 °C, 4 h; endogenous partners by Western blot
SFB-DHX9^WT (human) [2] = molecular target: SFB-DHX9^WT (human) (UniProt Q08211); assay: as above
[3] = molecular target: endogenous DHX9 (human (endogenous in HeLa)) (UniProt Q08211); assay: proximity ligation; PLA on PFA-fixed cells treated with RNase A or with RNH (Supplementary Fig. 6l, m)
SFB-DHX9^WT (human) [4] = molecular target: SFB-DHX9^WT (human) (UniProt Q08211); assay: co-IP; FLAG affinity purification (anti-FLAG beads) of SFB-DHX9 from transfected HeLa cells; partners endogenous or HA-tagged, by Western blot; also with co-expressed WT or enzyme-dead RNH-mCherry, and after siControl or siUBC9

Chains of the proteins cited; added tags and fusions are not shown. Lines headed by an entry give the natural chain unless they say otherwise; changes in a name come on top.
UniProt Q08211: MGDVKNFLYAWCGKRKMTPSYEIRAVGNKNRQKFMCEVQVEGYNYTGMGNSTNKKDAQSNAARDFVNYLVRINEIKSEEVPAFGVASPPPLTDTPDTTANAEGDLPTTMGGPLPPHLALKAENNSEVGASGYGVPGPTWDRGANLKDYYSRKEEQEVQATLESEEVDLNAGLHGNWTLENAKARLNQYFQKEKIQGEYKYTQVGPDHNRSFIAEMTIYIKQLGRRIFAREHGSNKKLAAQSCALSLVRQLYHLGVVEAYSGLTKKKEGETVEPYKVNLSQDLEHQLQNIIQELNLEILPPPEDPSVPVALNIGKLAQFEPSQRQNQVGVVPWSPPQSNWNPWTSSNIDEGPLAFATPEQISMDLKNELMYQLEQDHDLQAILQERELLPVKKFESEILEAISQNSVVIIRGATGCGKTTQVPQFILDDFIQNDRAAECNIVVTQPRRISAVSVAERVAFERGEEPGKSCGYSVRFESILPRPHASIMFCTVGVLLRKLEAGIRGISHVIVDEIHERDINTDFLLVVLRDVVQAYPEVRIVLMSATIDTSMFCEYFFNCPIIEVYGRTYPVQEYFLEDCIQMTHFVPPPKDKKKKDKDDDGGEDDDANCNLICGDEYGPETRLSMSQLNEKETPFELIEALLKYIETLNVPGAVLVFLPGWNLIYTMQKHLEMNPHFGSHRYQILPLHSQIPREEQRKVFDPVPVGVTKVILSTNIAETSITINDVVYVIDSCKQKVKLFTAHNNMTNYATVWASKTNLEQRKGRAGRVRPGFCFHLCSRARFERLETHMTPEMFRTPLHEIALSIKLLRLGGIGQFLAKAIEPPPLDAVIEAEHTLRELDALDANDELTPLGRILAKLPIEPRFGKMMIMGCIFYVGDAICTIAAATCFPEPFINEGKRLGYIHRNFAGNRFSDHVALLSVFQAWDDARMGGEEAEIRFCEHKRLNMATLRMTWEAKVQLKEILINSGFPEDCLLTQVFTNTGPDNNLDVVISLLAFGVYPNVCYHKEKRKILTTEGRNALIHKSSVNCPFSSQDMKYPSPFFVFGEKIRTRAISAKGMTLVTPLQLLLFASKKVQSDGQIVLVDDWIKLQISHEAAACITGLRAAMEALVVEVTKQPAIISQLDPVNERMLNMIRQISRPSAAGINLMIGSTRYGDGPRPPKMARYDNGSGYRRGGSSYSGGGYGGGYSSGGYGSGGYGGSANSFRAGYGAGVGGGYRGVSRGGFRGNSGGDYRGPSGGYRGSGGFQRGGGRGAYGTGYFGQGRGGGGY

B1: XRN2 (protein, UniProt Q9H0D6 1-950)
chain: MGVPAFFRWLSRKYPSIIVNCVEEKPKECNGVKIPVDASKPNPNDVEFDNLYLDMNGIIHPCTHPEDKPAPKNEDEMMVAIFEYIDRLFSIVRPRRLLYMAIDGVAPRAKMNQQRSRRFRASKEGMEAAVEKQRVREEILAKGGFLPPEEIKERFDSNCITPGTEFMDNLAKCLRYYIADRLNNDPGWKNLTVILSDASAPGEGEHKIMDYIRRQRAQPNHDPNTHHCLCGADADLIMLGLATHEPNFTIIREEFKPNKPKPCGLCNQFGHEVKDCEGLPREKKGKHDELADSLPCAEGEFIFLRLNVLREYLERELTMASLPFTFDVERSIDDWVFMCFFVGNDFLPHLPSLEIRENAIDRLVNIYKNVVHKTGGYLTESGYVNLQRVQMIMLAVGEVEDSIFKKRKDDEDSFRRRQKEKRKRMKRDQPAFTPSGILTPHALGSRNSPGSQVASNPRQAAYEMRMQNNSSPSISPNTSFTSDGSPSPLGGIKRKAEDSDSEPEPEDNVRLWEAGWKQRYYKNKFDVDAADEKFRRKVVQSYVEGLCWVLRYYYQGCASWKWYYPFHYAPFASDFEGIADMPSDFEKGTKPFKPLEQLMGVFPAASGNFLPPSWRKLMSDPDSSIIDFYPEDFAIDLNGKKYAWQGVALLPFVDERRLRAALEEVYPDLTPEETRRNSLGGDVLFVGKHHPLHDFILELYQTGSTEPVEVPPELCHGIQGKFSLDEEAILPDQIVCSPVPMLRDLTQNTVVSINFKDPQFAEDYIFKAVMLPGARKPAAVLKPSDWEKSSNGRQWKPQLGFNRDRRPVHLDQAAFRTLGHVMPRGSGTGIYSNAAPPPVTYQGNLYRPLLRGQAQIPKLMSNMRPQDSWRGPPPLFQQQRFDRGVGAEPLLPWNRMLQTQNAAFQPNQYQMLAGPGGYPPRRDDRGGRQGYPREGRKYPLPPPSGRYNWN
For B1, the binding (SFB-DHX9^WT (human) [1]) was “binds”, the binding (SFB-DHX9^K76R (human)) was “binds” and the binding (SFB-DHX9^WT (human) [2]) was “binds”.

B2: DDX21 (protein, UniProt Q9NR30 1-783)
chain: MPGKLRSDAGLESDTAMKKGETLRKQTEEKEKKEKPKSDKTEEIAEEEETVFPKAKQVKKKAEPSEVDMNSPKSKKAKKKEEPSQNDISPKTKSLRKKKEPIEKKVVSSKTKKVTKNEEPSEEEIDAPKPKKMKKEKEMNGETREKSPKLKNGFPHPEPDCNPSEAASEESNSEIEQEIPVEQKEGAFSNFPISEETIKLLKGRGVTFLFPIQAKTFHHVYSGKDLIAQARTGTGKTFSFAIPLIEKLHGELQDRKRGRAPQVLVLAPTRELANQVSKDFSDITKKLSVACFYGGTPYGGQFERMRNGIDILVGTPGRIKDHIQNGKLDLTKLKHVVLDEVDQMLDMGFADQVEEILSVAYKKDSEDNPQTLLFSATCPHWVFNVAKKYMKSTYEQVDLIGKKTQKTAITVEHLAIKCHWTQRAAVIGDVIRVYSGHQGRTIIFCETKKEAQELSQNSAIKQDAQSLHGDIPQKQREITLKGFRNGSFGVLVATNVAARGLDIPEVDLVIQSSPPKDVESYIHRSGRTGRAGRTGVCICFYQHKEEYQLVQVEQKAGIKFKRIGVPSATEIIKASSKDAIRLLDSVPPTAISHFKQSAEKLIEEKGAVEALAAALAHISGATSVDQRSLINSNVGFVTMILQCSIEMPNISYAWKELKEQLGEEIDSKVKGMVFLKGKLGVCFDVPTASVTEIQEKWHDSRRWQLSVATEQPELEGPREGYGGFRGQREGSRGFRGQRDGNRRFRGQREGSRGPRGQRSGGGNKSNRSQNKGQKRSFSKAFGQ
With B2 the binding [3] was “binds”, the binding (SFB-DHX9^WT (human) [1]) was “binds” and the binding (SFB-DHX9^WT (human) [4]) was “binds”. For the same binder, the binding (SFB-DHX9^K76R (human)) was “binds” and the binding (SFB-DHX9^WT (human) [2]) was “binds”.

B3: ADAR1 (protein, UniProt P55265 1-1226)
chain: MNPRQGYSLSGYYTHPFQGYEHRQLRYQQPGPGSSPSSFLLKQIEFLKGQLPEAPVIGKQTPSLPPSLPGLRPRFPVLLASSTRGRQVDIRGVPRGVHLRSQGLQRGFQHPSPRGRSLPQRGVDCLSSHFQELSIYQDQEQRILKFLEELGEGKATTAHDLSGKLGTPKKEINRVLYSLAKKGKLQKEAGTPPLWKIAVSTQAWNQHSGVVRPDGHSQGAPNSDPSLEPEDRNSTSVSEDLLEPFIAVSAQAWNQHSGVVRPDSHSQGSPNSDPGLEPEDSNSTSALEDPLEFLDMAEIKEKICDYLFNVSDSSALNLAKNIGLTKARDINAVLIDMERQGDVYRQGTTPPIWHLTDKKRERMQIKRNTNSVPETAPAAIPETKRNAEFLTCNIPTSNASNNMVTTEKVENGQEPVIKLENRQEARPEPARLKPPVHYNGPSKAGYVDFENGQWATDDIPDDLNSIRAAPGEFRAIMEMPSFYSHGLPRCSPYKKLTECQLKNPISGLLEYAQFASQTCEFNMIEQSGPPHEPRFKFQVVINGREFPPAEAGSKKVAKQDAAMKAMTILLEEAKAKDSGKSEESSHYSTEKESEKTAESQTPTPSATSFFSGKSPVTTLLECMHKLGNSCEFRLLSKEGPAHEPKFQYCVAVGAQTFPSVSAPSKKVAKQMAAEEAMKALHGEATNSMASDNQPEGMISESLDNLESMMPNKVRKIGELVRYLNTNPVGGLLEYARSHGFAAEFKLVDQSGPPHEPKFVYQAKVGGRWFPAVCAHSKKQGKQEAADAALRVLIGENEKAERMGFTEVTPVTGASLRRTMLLLSRSPEAQPKTLPLTGSTFHDQIAMLSHRCFNTLTNSFQPSLLGRKILAAIIMKKDSEDMGVVVSLGTGNRCVKGDSLSLKGETVNDCHAEIISRRGFIRFLYSELMKYNSQTAKDSIFEPAKGGEKLQIKKTVSFHLYISTAPCGDGALFDKSCSDRAMESTESRHYPVFENPKQGKLRTKVENGEGTIPVESSDIVPTWDGIRLGERLRTMSCSDKILRWNVLGLQGALLTHFLQPIYLKSVTLGYLFSQGHLTRAICCRVTRDGSAFEDGLRHPFIVNHPKVGRVSIYDSKRQSGKTKETSVNWCLADGYDLEILDGTRGTVDGPRNELSRVSKKNIFLLFKKLCSFRYRRDLLRLSYGEAKKAARDYETAKNYFKKGLKDMGYGNWISKPQEEKNFYLCPV
For B3, the binding (SFB-DHX9^WT (human) [1]) was “binds” and the binding (SFB-DHX9^WT (human) [2]) was “binds”.

B4: HA-DDX21^WT (protein, UniProt Q9NR30 1-783)
chain: B2 chain
In the case of B4, the binding (SFB-DHX9^WT (human) [4]) is reported as “binds”.

Source: paper PMC11255299
